# Results from article PMC11376197 (Chemical Science, 2024).
# What was measured:
# A549 (lung cancer cells) = assay: Cell viability assay; format: cell-based, human; details: read-out: IC50 A549; 96 h of incubation
# [1] = tested on: MDA-MB-231 (triple-negative breast cancer cells); assay: Cell viability assay; format: cell-based, human; details: read-out: IC50 MDA-MB-231; 96 h of incubation
smiles,measurement,setting,value
N.N.[Cl][Pt][Cl] [Cisplatin],IC50,A549 (lung cancer cells),11 ± 1 µM
same,IC50,[1],15 ± 1 µM
